Data reported in the supplement of paper PMC6078165.
The reference is the same well before dosing, and untreated signal decays as well.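 Fibroblast labels name human fibroblasts: mostly primary ones from tissues such as uterus (C12385, HUF), lung (H6013), bone (Hs27A), adrenal (HADF) and skin (WS1), plus mammary HMF and breast cancer-associated Hs343T. The cancer cells are basal-like or mesenchymal-like triple-negative breast cancer lines. The paper calls a changed response a hit when it shifts by more than 3x the replicate standard deviation. The tissue of the other fibroblasts is not given here.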

System: MDAMB468
Assay: relative JC-1 red fluorescence (viability) vs pre-drug, coculture with fibroblast (fraction); higher = more viable cancer cells
Description: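 JC-1 labelled TNBC cells cocultured 1:1 (1,500 cells each) with CellTrace Violet stained primary or stromal fibroblasts in 384-well plates in FluoroBrite medium, treated with one of 42 anticancer drugs at 0.1, 1, 10 or 100 uM. JC-1 red fluorescence (mitochondrial integrity in cancer cells only) was read by plate reader every 8 h for 72 h. Values are normalised to each well's pre-drug value. The stock of one drug was tenfold lower, so its dose labels may be too high.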

O=C(O)C1(C(=O)O)CCC1.[NH2-].[NH2-].[Pt+2] [Carboplatin]
relative JC-1 red fluorescence
Settings	8 h	16 h	24 h	32 h	40 h	48 h	56 h	64 h	72 h
0.1 µM, coculture fibroblast: C12385	0.889	0.8383	0.7924	0.7456	0.7177	0.7082	0.665	0.643	0.638
0.1 µM, coculture fibroblast: H6013	0.877	0.808	0.8002	0.7973	0.77	0.775	0.7445	0.7264	0.6802
0.1 µM, coculture fibroblast: H6019	0.845	0.778	0.762	0.705	0.656	0.634	0.577	0.543	0.517
0.1 µM, coculture fibroblast: H6076	0.9541	0.9474	0.883	0.893	0.827	0.825	0.787	0.774	0.836
0.1 µM, coculture fibroblast: H6231	0.816	0.966	0.877	0.828	0.781	0.756	0.698	0.665	0.63
0.1 µM, coculture fibroblast: HADF	0.875	0.819	0.774	0.748	0.697	0.684	0.645	0.625	0.5923
0.1 µM, coculture fibroblast: HCFa	0.851	0.771	0.732	0.715	0.645	0.63645	0.584	0.547	0.501
0.1 µM, coculture fibroblast: HCPF	0.908	0.958	0.907	0.8926	0.81	0.7926	0.75	0.738	0.73
0.1 µM, coculture fibroblast: HHSteC	0.89961	0.8395	0.816	0.7824	0.7553	0.755	0.699	0.671	0.615
0.1 µM, coculture fibroblast: HMF	0.881	0.925	0.85287	0.856	0.776	0.771	0.724	0.706	0.708
0.1 µM, coculture fibroblast: HPFa	0.908	0.879	0.825	0.764	0.724	0.709	0.64	0.603	0.526
0.1 µM, coculture fibroblast: HUF	0.9187	0.836	0.766	0.703	0.646	0.626	0.587	0.56	0.531
0.1 µM, coculture fibroblast: Hs5	0.752	0.94	0.9339	0.886	0.811	0.777	0.73	0.688	0.691
0.1 µM, coculture fibroblast: Hs27A	0.853	0.7718	0.7411	0.7425	0.678	0.674	0.632	0.613	0.5732
0.1 µM, coculture fibroblast: Hs343T	0.899	0.927	0.8657	0.856	0.785	0.777	0.722	0.716	0.695
0.1 µM, coculture fibroblast: WS1	0.867	0.789	0.721	0.651	0.614	0.583	0.557	0.527	0.526
1 µM, coculture fibroblast: C12385	0.8261	0.806	0.772	0.714	0.672	0.66	0.615	0.594	0.579
1 µM, coculture fibroblast: H6013	0.8628	0.851	0.818	0.807	0.811	0.812	0.785	0.764	0.705
1 µM, coculture fibroblast: H6019	0.809	0.78	0.751	0.698	0.657	0.642	0.593	0.558	0.535
1 µM, coculture fibroblast: H6076	0.911	0.907	0.881	0.896	0.832	0.833	0.82	0.813	0.863
1 µM, coculture fibroblast: H6231	0.839	0.876	0.851	0.866	0.814	0.798	0.753	0.727	0.714
1 µM, coculture fibroblast: HADF	0.8694	0.8171	0.744	0.7169	0.6728	0.6539	0.6109	0.595	0.5475
1 µM, coculture fibroblast: HCFa	0.85122	0.8255	0.763	0.73119	0.6676	0.659	0.5958	0.5593	0.516
1 µM, coculture fibroblast: HCPF	0.863	0.781	0.876	0.864	0.793	0.768	0.719	0.706	0.6954
1 µM, coculture fibroblast: HHSteC	0.888	0.902	0.872	0.851	0.825	0.828	0.764	0.751	0.697
1 µM, coculture fibroblast: HMF	0.8241	0.88	0.795	0.769	0.696	0.6759	0.635	0.616	0.604
1 µM, coculture fibroblast: HPFa	0.9309	0.876	0.838	0.778	0.737	0.732	0.6508	0.6216	0.5382
1 µM, coculture fibroblast: HUF	0.89	0.844	0.8093	0.7493	0.71342	0.69	0.647	0.6251	0.603
1 µM, coculture fibroblast: Hs5	0.9692	0.921	0.8915	0.867	0.78614	0.7569	0.713	0.6731	0.678
1 µM, coculture fibroblast: Hs27A	0.8616	0.8599	0.7867	0.7887	0.739	0.735	0.69	0.669	0.628
1 µM, coculture fibroblast: Hs343T	0.864	0.878	0.844	0.839	0.763	0.746	0.708	0.695	0.691
1 µM, coculture fibroblast: WS1	0.8278	0.799	0.745	0.683	0.642	0.61	0.581	0.561	0.549
10 µM, coculture fibroblast: C12385	0.8864	0.84	0.7847	0.7208	0.669	0.645	0.599	0.557	0.5308
10 µM, coculture fibroblast: H6013	0.8838	0.8265	0.8058	0.791	0.76	0.757	0.728	0.708	0.658
10 µM, coculture fibroblast: H6019	0.837	0.77	0.745	0.688	0.647	0.628	0.577	0.545	0.524
10 µM, coculture fibroblast: H6076	0.958	0.817	0.894	0.903	0.827	0.825	0.7847	0.769	0.822
10 µM, coculture fibroblast: H6231	0.8593	0.9449	0.8969	0.9096	0.859	0.842	0.788	0.7714	0.763
10 µM, coculture fibroblast: HADF	0.9011	0.8395	0.795	0.784	0.722	0.706	0.657	0.626	0.574
10 µM, coculture fibroblast: HCFa	0.8763	0.821	0.787	0.764	0.698	0.686	0.631	0.6002	0.5578
10 µM, coculture fibroblast: HCPF	0.888	0.9782	0.936	0.924	0.848	0.818	0.775	0.7583	0.7531
10 µM, coculture fibroblast: HHSteC	0.8976	0.8474	0.81104	0.7666	0.7242	0.719	0.654	0.623	0.567
10 µM, coculture fibroblast: HMF	0.8622	0.924	0.905	0.881	0.822	0.802	0.752	0.728	0.696
10 µM, coculture fibroblast: HPFa	0.956	0.939	0.917	0.863	0.843	0.848	0.773	0.751	0.652
10 µM, coculture fibroblast: HUF	0.907	0.813	0.745	0.673	0.618	0.579	0.537	0.507	0.471
10 µM, coculture fibroblast: Hs5	0.875	0.888	0.947	0.911	0.84	0.815	0.781	0.754	0.784
10 µM, coculture fibroblast: Hs27A	0.866	0.816	0.789	0.7817	0.721	0.715	0.685	0.672	0.625
10 µM, coculture fibroblast: Hs343T	0.9135	0.922	0.91	0.88924	0.8056	0.7849	0.719	0.693	0.661
10 µM, coculture fibroblast: WS1	0.8754	0.7911	0.7347	0.662	0.605	0.56	0.518	0.471	0.44
100 µM, coculture fibroblast: C12385	0.843	0.821	0.792	0.728	0.667	0.643	0.604	0.589	0.575
100 µM, coculture fibroblast: H6013	0.884	0.884	0.86	0.844	0.861	0.874	0.868	0.868	0.796
100 µM, coculture fibroblast: H6019	0.84	0.821	0.777	0.664	0.603	0.592	0.552	0.539	0.532
100 µM, coculture fibroblast: H6076	0.893	0.91	0.8466	0.8474	0.757	0.742	0.721	0.712	0.767
100 µM, coculture fibroblast: H6231	0.779	0.8385	0.756	0.73	0.624	0.58	0.53	0.508	0.517
100 µM, coculture fibroblast: HADF	0.8779	0.828	0.7594	0.677	0.649	0.648	0.611	0.605	0.534
100 µM, coculture fibroblast: HCFa	0.877	0.884	0.833	0.79	0.75	0.752	0.699	0.667	0.603
100 µM, coculture fibroblast: HCPF	0.849	0.875	0.784	0.742	0.6329	0.5919	0.543	0.529	0.5324
100 µM, coculture fibroblast: HHSteC	0.875	0.822	0.768	0.692	0.656	0.659	0.601	0.571	0.513
100 µM, coculture fibroblast: HMF	0.823	0.858	0.7863	0.7407	0.624	0.58	0.533	0.516	0.518
100 µM, coculture fibroblast: HPFa	0.905	0.9031	0.875	0.788	0.774	0.772	0.713	0.696	0.61
100 µM, coculture fibroblast: HUF	0.869	0.786	0.7045	0.6	0.545	0.534	0.491	0.483	0.467
100 µM, coculture fibroblast: Hs5	0.936	0.914	0.84	0.7846	0.695	0.65	0.636	0.611	0.637
100 µM, coculture fibroblast: Hs27A	0.8482	0.8988	0.826	0.78982	0.7523	0.76	0.7272	0.7208	0.6462
100 µM, coculture fibroblast: Hs343T	0.8395	0.8695	0.785	0.711	0.571	0.533	0.487	0.468	0.468
100 µM, coculture fibroblast: WS1	0.839	0.808	0.746	0.641	0.577	0.537	0.497	0.474	0.469
